From PubChem BioAssay AID493014 (National Center for Advancing Translational Sciences (NCATS), 2011)
The whole screen tested about 340,000 compounds, of which about 170 (0.05%) were called active. The inconclusive results got no clear call from the source; some entries with a clear call stand among them for comparison. Calls come from the whole dose curve; as a rule, active = well fitted inhibition curve with a large enough effect in the signal ratio, with a control signal flat (not every such curve was filed as active); inconclusive = small, poorly fitted or top-dose-only effect, or effect the other way, or a change in a side signal; inactive = flat fitted curve, though single readings scatter; the % refers to the signal ratio. Potencies beside an inconclusive call are fits to weak or partial responses and may not hold up.

test: qHTS Assay to Find Inhibitors of Chronic Active B-Cell Receptor Signaling; settings: ABC-DLBCL IkBa-CBG/CBR reporter, luminescence ratio (green luciferase fused to IkBa over red control in TMD8 lymphoma cells), 4 h; activity change, negative = inhibition: at 46.1 µM (top of the series);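 for activity change, negative = inhibition: plate controls were basal doxycycline-induced cells for no effect and cells given 10 µM MG132 for full effect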
Summary of the method: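 Concentration-response series (up to 46 uM) were applied to TMD8 dual-reporter cells for 4 h at 37C with doxycycline. Green/red ratio, after filter-overlap correction, defined %Activity; red signal alone was normalised to basal cells and zero luminescence.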
Potency is the fitted concentration of half-maximal effect.

Structure (SMILES) | activity change, negative = inhibition | Potency
Cc1cccc(NC(=O)c2ccc(N3CCOCC3)c([N+](=O)[O-])c2)n1 | inactive: 12.8% | 
O=C(Nc1nc2c(s1)CN(Cc1ccccc1)CC2)c1c(F)cccc1F | inconclusive: -0.242% | 
CCCNC(=O)COC(=O)c1cc(C)nc2ccccc12 | inactive: 2.37% | 
O=C(CN1C(=O)C2CCCCC2C1=O)OCn1nnc2ccccc2c1=O (stereo not drawn) | inactive: -0.344% | 
CC1C/C(=N\NC(=O)c2ccc(NS(=O)(=O)c3ccc(Br)cc3)cc2)CC(C)(C)C1 (stereo not drawn) | inconclusive: -22.6% | 
COc1cccc(CNC(=O)c2nnn(-c3ccc(OC(F)(F)F)cc3)c2N)c1 | inconclusive: -9.64% | 
COc1ccc([C@@H]2[C@@H]3C(=O)N(C(C)(C)C)C(=O)[C@@H]3[C@]3(Cc4ccccc4)C(=O)N(c4ccc(C(F)(F)F)cc4)C(=O)N23)cc1 |  | inconclusive: 0.316 µM [rising, full curve, poor fit]
O=C(Nc1ccccn1)c1ccc2ccccc2c1O |  | inconclusive: 35.5 µM [rising, single point]
Cc1ccsc1/C=N/N=C/c1sccc1C | inactive: -17.2% | 
CCN1CCN(C(=O)/C=C/c2cccc(Cl)c2)CC1 | inconclusive: 2.6% | 
O=C(Nc1cccc2ccccc12)/C(Cl)=C/c1ccccc1 |  | inconclusive: 23.1 µM [falling, partial curve]
COc1ccccc1NC(=O)/C(=C/c1cccc([N+](=O)[O-])c1)c1ccccc1 | inactive: 1.87% | 
O=C(OCC(=O)N1CCN(C(=O)c2ccco2)CC1)c1ccccc1NCCO | inconclusive: -21.1% | 
O=C(O)CCn1cc(/C=C2\NC(=S)N(c3ccccc3)C2=O)c(-c2ccc(Br)cc2)n1 | inconclusive: 3.82% | 
Cc1cc(=O)oc2cc(OCCC[n+]3ccccc3)ccc12 | inconclusive: -12.2% | 
C=C1c2cc3c(cc2NC(=S)N1Cc1ccccc1)OCO3 | inconclusive: 3.23% | 
CC1=Nc2cc(C(=O)NCCN3CCOCC3)ccc2Sc2c(C)ccc(C)c21 |  | inconclusive: 22.4 µM [falling, single point]
Cc1cc(=O)[nH]c(N/N=C/C=C/c2ccccc2)n1 | inconclusive: -22% | 
OCCC1CN(Cc2ccccc2O)CCN1CCCc1ccccc1 (stereo not drawn) | inactive: 6.89% | 
Cn1cccc1C(=O)NNC(=O)COc1ccccc1Cl | inactive: -5.63% | 
Cn1c(N)c(C(=O)NCc2ccccc2Cl)sc1=S |  | inconclusive: 1.03 µM [falling, full curve]
Oc1c(Br)cccc1/C=N/c1ncn[nH]1 | inconclusive: 0.189% | 
Cc1c(NC(=O)C(C)OC(=O)CC2Sc3ccccc3NC2=O)c(=O)n(-c2ccccc2)n1C (stereo not drawn) | inconclusive: 3.62% | 

Exported as tab-separated lines: two of the compounds above
Structure (SMILES)	activity change, negative = inhibition	Potency
O=C(CN1C(=O)C2CCCCC2C1=O)OCn1nnc2ccccc2c1=O (stereo not drawn)	inactive: -0.344%	
CC1C/C(=N\NC(=O)c2ccc(NS(=O)(=O)c3ccc(Br)cc3)cc2)CC(C)(C)C1 (stereo not drawn)	inconclusive: -22.6%	
